Experimental data published in the supplement of paper PMC10849652.
This is one part of the list.

Sequences of proteins named here, by UniProt entry; tags and fusion partners are left off. A change or cut given only in a name is not applied to a line headed by its entry.
UniProt Q96FX2: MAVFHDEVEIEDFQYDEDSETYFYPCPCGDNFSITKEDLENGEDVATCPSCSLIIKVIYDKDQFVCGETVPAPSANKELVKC
UniProt Q14919: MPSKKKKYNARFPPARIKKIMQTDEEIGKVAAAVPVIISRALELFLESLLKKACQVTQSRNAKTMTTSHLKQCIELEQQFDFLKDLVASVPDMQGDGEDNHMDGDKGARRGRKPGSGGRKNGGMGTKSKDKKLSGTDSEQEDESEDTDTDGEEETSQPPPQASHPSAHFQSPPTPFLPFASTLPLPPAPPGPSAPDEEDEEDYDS
UniProt Q6V1X1: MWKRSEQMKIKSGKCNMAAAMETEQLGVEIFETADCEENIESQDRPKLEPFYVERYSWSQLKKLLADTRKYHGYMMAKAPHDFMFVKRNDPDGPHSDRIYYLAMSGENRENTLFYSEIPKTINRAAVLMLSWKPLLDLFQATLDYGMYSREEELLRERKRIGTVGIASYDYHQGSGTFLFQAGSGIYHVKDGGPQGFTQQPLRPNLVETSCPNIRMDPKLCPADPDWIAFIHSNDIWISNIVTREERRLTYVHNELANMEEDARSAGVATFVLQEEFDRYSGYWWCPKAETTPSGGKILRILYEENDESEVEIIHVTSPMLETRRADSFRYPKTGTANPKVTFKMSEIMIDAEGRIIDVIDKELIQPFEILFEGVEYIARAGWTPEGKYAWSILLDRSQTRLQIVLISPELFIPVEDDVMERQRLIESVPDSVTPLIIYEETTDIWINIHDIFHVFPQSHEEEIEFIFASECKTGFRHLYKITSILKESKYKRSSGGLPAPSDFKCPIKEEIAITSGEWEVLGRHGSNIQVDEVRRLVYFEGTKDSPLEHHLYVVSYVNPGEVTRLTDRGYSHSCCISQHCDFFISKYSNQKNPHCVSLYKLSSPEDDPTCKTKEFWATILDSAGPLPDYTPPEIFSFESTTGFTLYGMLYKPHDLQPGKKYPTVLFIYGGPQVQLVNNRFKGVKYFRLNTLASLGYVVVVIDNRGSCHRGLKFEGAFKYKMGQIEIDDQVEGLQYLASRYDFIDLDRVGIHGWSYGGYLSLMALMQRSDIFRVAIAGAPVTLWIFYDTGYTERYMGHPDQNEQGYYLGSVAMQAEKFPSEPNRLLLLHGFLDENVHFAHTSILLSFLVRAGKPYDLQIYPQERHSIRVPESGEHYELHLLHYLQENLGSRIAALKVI
UniProt Q96G46: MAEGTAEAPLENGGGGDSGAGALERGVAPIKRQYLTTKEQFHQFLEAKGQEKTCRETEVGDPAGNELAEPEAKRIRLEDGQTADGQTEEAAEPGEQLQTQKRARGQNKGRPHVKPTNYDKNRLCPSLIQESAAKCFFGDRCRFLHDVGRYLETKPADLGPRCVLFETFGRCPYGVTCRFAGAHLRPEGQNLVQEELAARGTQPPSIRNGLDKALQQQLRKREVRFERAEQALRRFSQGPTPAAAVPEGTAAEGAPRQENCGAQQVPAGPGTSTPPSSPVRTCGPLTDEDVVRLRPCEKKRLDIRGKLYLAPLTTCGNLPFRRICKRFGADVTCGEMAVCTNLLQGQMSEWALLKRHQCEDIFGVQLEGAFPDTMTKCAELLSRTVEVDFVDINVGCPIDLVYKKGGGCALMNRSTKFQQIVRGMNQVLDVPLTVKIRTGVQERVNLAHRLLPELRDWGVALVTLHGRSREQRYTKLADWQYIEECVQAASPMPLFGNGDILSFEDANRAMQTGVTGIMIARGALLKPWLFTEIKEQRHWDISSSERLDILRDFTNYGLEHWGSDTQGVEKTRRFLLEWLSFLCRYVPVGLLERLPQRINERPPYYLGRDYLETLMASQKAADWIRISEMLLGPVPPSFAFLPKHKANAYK
UniProt O75071: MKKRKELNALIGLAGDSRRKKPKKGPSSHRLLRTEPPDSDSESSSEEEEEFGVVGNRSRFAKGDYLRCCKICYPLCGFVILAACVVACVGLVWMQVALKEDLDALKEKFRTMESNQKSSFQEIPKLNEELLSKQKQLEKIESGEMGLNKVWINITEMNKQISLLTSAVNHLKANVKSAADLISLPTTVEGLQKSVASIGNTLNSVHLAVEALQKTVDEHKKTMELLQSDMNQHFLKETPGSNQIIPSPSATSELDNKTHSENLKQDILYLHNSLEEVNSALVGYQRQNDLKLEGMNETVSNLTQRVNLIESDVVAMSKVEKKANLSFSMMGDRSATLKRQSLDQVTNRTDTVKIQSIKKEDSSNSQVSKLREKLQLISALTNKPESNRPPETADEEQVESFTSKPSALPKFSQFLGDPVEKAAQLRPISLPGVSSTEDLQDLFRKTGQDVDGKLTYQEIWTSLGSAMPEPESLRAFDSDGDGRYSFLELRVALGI
UniProt Q15029: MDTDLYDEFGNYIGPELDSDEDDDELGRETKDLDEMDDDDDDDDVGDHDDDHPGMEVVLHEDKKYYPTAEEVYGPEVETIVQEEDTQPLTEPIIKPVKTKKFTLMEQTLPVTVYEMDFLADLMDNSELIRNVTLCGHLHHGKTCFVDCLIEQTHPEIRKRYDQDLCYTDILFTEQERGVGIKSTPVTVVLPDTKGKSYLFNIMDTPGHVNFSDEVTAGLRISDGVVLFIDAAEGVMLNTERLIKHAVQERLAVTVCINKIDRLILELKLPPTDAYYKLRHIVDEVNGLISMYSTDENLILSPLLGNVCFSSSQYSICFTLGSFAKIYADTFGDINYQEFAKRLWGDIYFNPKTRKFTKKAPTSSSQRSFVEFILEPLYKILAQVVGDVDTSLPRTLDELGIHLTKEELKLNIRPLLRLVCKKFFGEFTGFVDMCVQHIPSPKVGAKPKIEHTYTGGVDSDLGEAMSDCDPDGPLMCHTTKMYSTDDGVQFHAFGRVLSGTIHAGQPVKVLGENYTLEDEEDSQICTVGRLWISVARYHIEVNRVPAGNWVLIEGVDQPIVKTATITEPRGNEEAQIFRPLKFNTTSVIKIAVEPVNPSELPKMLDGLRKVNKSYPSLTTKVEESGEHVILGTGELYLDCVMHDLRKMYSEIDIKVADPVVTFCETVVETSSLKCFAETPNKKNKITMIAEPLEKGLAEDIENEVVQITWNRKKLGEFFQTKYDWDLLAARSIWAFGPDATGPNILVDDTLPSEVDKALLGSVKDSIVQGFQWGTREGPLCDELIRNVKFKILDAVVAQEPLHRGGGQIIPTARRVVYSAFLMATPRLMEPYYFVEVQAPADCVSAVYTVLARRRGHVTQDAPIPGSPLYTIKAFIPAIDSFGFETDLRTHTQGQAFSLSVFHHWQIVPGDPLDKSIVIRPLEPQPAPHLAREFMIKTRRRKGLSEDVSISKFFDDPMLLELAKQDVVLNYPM
UniProt Q13409, whole entry, looked up: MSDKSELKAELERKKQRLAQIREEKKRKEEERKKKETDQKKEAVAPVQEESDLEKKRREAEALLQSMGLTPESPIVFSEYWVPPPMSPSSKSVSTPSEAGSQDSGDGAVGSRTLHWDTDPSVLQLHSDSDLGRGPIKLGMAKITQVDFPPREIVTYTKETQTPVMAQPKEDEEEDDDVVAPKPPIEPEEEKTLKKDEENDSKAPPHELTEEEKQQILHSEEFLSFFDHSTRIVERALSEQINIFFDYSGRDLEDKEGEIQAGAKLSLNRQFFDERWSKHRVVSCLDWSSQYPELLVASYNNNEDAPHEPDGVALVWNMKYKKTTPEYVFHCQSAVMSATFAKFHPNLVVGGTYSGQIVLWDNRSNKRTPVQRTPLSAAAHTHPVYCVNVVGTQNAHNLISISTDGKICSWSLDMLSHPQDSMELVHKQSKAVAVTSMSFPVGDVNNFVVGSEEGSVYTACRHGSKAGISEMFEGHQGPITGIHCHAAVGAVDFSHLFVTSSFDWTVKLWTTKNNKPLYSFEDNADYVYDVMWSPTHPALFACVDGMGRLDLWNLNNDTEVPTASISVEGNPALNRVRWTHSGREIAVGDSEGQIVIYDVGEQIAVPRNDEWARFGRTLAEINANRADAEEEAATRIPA
UniProt Q3B7T1: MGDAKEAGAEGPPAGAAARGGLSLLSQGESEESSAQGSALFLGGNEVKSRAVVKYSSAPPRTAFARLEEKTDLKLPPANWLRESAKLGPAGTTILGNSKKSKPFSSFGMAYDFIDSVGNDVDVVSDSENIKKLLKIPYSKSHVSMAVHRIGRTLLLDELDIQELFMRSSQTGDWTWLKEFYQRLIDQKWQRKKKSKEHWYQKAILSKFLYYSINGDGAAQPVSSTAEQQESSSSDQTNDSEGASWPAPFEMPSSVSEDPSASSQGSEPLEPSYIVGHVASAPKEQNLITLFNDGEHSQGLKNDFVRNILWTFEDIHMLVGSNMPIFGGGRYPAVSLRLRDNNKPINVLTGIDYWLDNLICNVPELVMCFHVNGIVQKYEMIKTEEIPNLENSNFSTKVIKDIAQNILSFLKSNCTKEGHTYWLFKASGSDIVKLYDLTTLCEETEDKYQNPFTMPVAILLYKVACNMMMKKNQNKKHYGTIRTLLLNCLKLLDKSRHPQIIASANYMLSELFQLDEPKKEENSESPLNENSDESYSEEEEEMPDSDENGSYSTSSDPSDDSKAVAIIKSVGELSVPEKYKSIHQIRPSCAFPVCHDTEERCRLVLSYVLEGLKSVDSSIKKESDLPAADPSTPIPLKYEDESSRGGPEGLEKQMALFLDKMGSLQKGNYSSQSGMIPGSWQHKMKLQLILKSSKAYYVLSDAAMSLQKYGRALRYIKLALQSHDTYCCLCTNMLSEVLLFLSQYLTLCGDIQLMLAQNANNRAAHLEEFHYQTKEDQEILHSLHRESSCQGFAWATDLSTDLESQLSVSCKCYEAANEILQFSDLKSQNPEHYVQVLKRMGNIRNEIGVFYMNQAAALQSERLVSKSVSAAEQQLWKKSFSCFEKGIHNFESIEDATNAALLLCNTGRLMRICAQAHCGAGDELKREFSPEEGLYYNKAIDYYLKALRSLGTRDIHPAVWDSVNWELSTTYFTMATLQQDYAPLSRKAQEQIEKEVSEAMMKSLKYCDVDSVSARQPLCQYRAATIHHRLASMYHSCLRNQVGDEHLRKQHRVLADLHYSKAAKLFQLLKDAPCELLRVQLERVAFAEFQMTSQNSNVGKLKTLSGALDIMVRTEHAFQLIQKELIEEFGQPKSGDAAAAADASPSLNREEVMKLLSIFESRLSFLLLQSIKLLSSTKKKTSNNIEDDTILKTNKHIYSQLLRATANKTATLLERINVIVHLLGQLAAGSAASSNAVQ
UniProt P33316: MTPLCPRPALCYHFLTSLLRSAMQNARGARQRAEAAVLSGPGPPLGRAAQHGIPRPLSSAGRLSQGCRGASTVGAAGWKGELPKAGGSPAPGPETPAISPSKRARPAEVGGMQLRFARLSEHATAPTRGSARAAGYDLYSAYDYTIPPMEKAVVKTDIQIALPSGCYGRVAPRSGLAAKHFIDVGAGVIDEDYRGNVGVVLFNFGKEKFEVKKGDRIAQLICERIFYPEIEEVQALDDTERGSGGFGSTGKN
UniProt P47813, whole entry, looked up: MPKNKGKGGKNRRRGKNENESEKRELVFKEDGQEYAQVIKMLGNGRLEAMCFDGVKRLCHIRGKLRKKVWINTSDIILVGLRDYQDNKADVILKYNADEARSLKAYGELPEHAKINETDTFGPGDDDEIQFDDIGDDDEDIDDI
UniProt O95905: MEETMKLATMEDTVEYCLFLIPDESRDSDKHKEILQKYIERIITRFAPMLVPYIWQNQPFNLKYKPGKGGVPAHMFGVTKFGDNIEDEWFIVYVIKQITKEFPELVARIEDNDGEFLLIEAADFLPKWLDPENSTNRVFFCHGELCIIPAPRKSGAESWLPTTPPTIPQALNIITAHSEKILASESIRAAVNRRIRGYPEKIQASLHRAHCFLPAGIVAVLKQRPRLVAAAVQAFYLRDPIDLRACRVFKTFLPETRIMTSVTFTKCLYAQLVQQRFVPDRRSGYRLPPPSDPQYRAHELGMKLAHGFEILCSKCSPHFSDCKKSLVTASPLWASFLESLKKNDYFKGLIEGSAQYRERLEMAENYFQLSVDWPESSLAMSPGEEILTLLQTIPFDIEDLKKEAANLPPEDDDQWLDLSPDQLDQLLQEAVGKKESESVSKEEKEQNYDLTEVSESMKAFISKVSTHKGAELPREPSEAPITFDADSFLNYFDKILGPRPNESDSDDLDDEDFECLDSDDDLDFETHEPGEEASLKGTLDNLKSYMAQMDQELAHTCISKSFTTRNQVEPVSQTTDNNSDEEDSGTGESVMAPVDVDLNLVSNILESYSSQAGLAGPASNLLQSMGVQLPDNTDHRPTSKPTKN
UniProt Q8TEA8: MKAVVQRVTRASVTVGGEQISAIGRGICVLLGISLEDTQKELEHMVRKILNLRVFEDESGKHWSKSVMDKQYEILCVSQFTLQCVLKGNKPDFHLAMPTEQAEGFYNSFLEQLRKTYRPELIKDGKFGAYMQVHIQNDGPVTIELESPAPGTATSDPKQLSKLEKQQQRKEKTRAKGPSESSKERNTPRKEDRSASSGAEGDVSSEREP
UniProt Q8N9N8: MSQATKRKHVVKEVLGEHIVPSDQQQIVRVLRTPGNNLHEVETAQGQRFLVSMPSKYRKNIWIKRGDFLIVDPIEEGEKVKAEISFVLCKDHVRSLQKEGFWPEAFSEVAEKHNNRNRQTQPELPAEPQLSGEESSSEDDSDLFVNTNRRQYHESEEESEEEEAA

Key:
Assay in all cases: log2 fold change, soluble protein after heating vs DMSO (PISA); higher = thermal stabilisation; K562 lysate, 10 uM; active = over 0.2 and 3.5 SD of the protein, either way, in both replicates (recomputed)
[1] = compound: C1=CC=C(C=C1)[C@H](COC2=CC3=C(C=C2)NC(=O)N3)NC(=O)C4=CC=CN(C4=O)CC5=CC(=C(C=C5)F)F
Method in brief: (§1)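 Quantification was by TMTpro 16plex LC-MS/MS with equalised channel sums, applied to the supernatant after 21,000xg for 90 min. Samples were crude K562 extract at 1 mg/mL protein in PBS pH 7.4 with 1 mM MgCl2, treated with 10 μM compound for 30 min, heated for 3 min across 48°C-58°C, pooled and brought to 0.5% NP-40 at 4°C. Values are log-two fold changes in thermal stability relative to solvent controls, from duplicates.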

[2] = compound: CC1=C(SC2=C1C(=N[C@H](C3=NN=C(N32)C)CC(=O)N)C4=CC=C(C=C4)Cl)C
Method in brief: as §1

[3] = compound: CC1=C2C(=CC=C1)N=C(N(C2=O)C3=CC=CC=C3C)CN4C=NC5=C(N=CN=C54)N
Method in brief: as §1

[4] = compound: Cc1sc2c(c1C)C(c1ccc(Cl)cc1)=N[C@@H](CC(=O)OC(C)(C)C)c1nnc(C)n1-2
Method in brief: as §1

[5] = compound: c1ccc([C@@H]2C[C@H]2NC2CCNCC2)cc1
Method in brief: as §1

Measured: log2 fold change

DPH3 (UniProt Q96FX2)
inactive: [1] -0.064 | [2] -0.001 | [3] 0.086 | [4] -0.031 | [5] -0.091

EHD1 (UniProt Q9H4M9)
inactive: [1] -0.023 | [2] 0.009 | [3] 0.009 | [4] -0.034 | [5] 0.072

DRAP1 isoform 2 (UniProt Q14919)
inactive: [1] 0.023 | [2] -0.04 | [3] 0.008 | [4] 0.015 | [5] -0.015

DR1 (UniProt Q01658)
inactive: [1] 0.019 | [2] 0.031 | [3] -0.044 | [4] 0.001 | [5] -0.033

EEF1A1, A0A087WVQ9
inactive: [1] -0.053 | [2] 0.093 | [3] -0.042 | [4] -0.001 | [5] 0.049

DPP8 (UniProt Q6V1X1)
inactive: [1] -0.046 | [2] 0.028 | [3] 0.041 | [4] -0.095 | [5] 0.073

DPH1 (UniProt Q9BZG8)
inactive: [1] 0.04 | [2] 0.02 | [3] -0.014 | [4] 0.018 | [5] 0

EEF1AKMT4 (UniProt P0DPD7)
inactive: [1] -0.061 | [2] 0.027 | [3] -0.036 | [4] 0.017 | [5] -0.063

EDARADD (UniProt Q8WWZ3)
inactive: [1] 0.074 | [2] -0.088 | [3] -0.032 | [4] -0.037 | [5] 0.064

EDC4 (UniProt Q6P2E9)
inactive: [1] -0.026 | [2] 0.005 | [3] 0.027 | [4] 0.008 | [5] 0.011

DPYSL2 (UniProt Q16555)
inactive: [1] 0.04 | [2] -0.013 | [3] 0.012 | [4] -0.012 | [5] 0

DUS1L (UniProt Q6P1R4)
inactive: [1] 0.001 | [2] 0.067 | [3] 0.01 | [4] 0.077 | [5] -0.014

ECHDC1 (UniProt Q9NTX5)
inactive: [1] 0.036 | [2] 0.018 | [3] 0.033 | [4] -0.036 | [5] -0.009

EEF1AKNMT (UniProt Q8N6R0)
inactive: [1] -0.012 | [2] -0.073 | [3] 0.013 | [4] 0.018 | [5] 0.042

EFHD1 (UniProt Q9BUP0)
inactive: [1] -0.014 | [2] 0.025 | [3] -0.04 | [4] 0.028 | [5] -0.13

DYNC1LI1 (UniProt Q9Y6G9)
inactive: [1] -0.009 | [2] 0.013 | [3] -0.017 | [4] 0 | [5] 0.005

DSG2 (UniProt Q14126)
inactive: [1] 0.036 | [2] 0.014 | [3] -0.02 | [4] -0.034 | [5] -0.029

EFNB1 (UniProt P98172)
inactive: [1] 0.005 | [2] 0.003 | [3] 0.032 | [4] -0.031 | [5] -0.074

EFHD2 (UniProt Q96C19)
inactive: [1] 0.035 | [2] 0.04 | [3] -0.01 | [4] -0.037 | [5] -0.015

EGLN1 (UniProt Q9GZT9)
inactive: [1] 0.095 | [2] -0.023 | [3] -0.01 | [4] -0.038 | [5] -0.007

DYNC1H1 (UniProt Q14204)
inactive: [1] -0.017 | [2] -0.004 | [3] 0.022 | [4] 0.026 | [5] 0.04

DUS3L (UniProt Q96G46)
inactive: [1] 0.084 | [2] -0.001 | [3] 0.005 | [4] -0.001 | [5] 0.098

EFCAB14 (UniProt O75071)
inactive: [1] 0.099 | [2] -0.074 | [3] 0.088 | [4] -0.014 | [5] 0.013

EFTUD2 (UniProt Q15029)
inactive: [1] 0.014 | [2] -0.012 | [3] -0.009 | [4] 0.028 | [5] 0.019

DYNC1LI2 (UniProt O43237)
inactive: [1] -0.001 | [2] -0.053 | [3] 0.031 | [4] -0.112 | [5] 0.008

DRAP1 (UniProt E9PQX9)
inactive: [1] -0.016 | [2] 0.013 | [3] 0.024 | [4] 0.081 | [5] -0.06

EIF1B (UniProt O60739)
inactive: [1] 0.28 | [2] -0.004 | [3] 0.192 | [4] -0.108 | [5] -0.245

DYNC1I2 isoform 5 (UniProt Q13409)
inactive: [1] 0.049 | [2] -0.03 | [3] -0.012 | [4] -0.018 | [5] 0.021

EDRF1 (UniProt Q3B7T1)
inactive: [1] 0.026 | [2] 0.061 | [3] -0.04 | [4] -0.013 | [5] 0.009

DYM (UniProt Q7RTS9)
inactive: [1] 0.021 | [2] -0.008 | [3] 0.003 | [4] 0.025 | [5] 0.013

DPM1 (UniProt O60762)
inactive: [1] -0.01 | [2] 0.048 | [3] 0.022 | [4] 0.073 | [5] 0.093

DUT (UniProt P33316)
inactive: [1] 0.049 | [2] -0.03 | [3] -0.021 | [4] -0.041 | [5] -0.066

EIF1AX (UniProt P47813)
inactive: [1] -0.005 | [2] -0.023 | [3] 0.034 | [4] 0.014 | [5] 0.004

ECM1 isoform 4 (UniProt Q16610)
inactive: [1] -0.012 | [2] -0.005 | [3] 0.021 | [4] -0.027 | [5] -0.007

EI24 (UniProt O14681)
inactive: [1] 0.011 | [2] -0.012 | [3] -0.036 | [4] -0.026 | [5] 0.111

DYNLL2 (UniProt Q96FJ2)
inactive: [1] -0.075 | [2] 0.027 | [3] 0.021 | [4] 0.012 | [5] -0.034

DTD2 (UniProt Q96FN9)
inactive: [1] -0.067 | [2] 0.278 | [3] -0.103 | [4] 0.123 | [5] -0.096

DTNBP1 (UniProt Q96EV8)
inactive: [1] 0.017 | [2] 0.043 | [3] 0.019 | [4] 0.002 | [5] 0.021

EFL1 (UniProt Q7Z2Z2)
inactive: [1] -0.005 | [2] -0.017 | [3] 0.007 | [4] -0.006 | [5] 0.082

EEF1E1 (UniProt O43324)
inactive: [1] 0.007 | [2] -0.032 | [3] -0.014 | [4] 0.028 | [5] 0.042

E4F1 (UniProt Q66K89)
inactive: [1] 0.058 | [2] 0.517 | [3] -0.174 | [4] 0.049 | [5] 0.022

DYRK1A (UniProt Q13627)
inactive: [1] -0.019 | [2] 0.003 | [3] -0.014 | [4] 0.019 | [5] 0.031

ECD isoform 3 (UniProt O95905)
inactive: [1] -0.016 | [2] -0.014 | [3] 0.049 | [4] 0.053 | [5] -0.018

DYNC2H1 isoform 2 (UniProt Q8NCM8)
inactive: [1] -0.011 | [2] -0.034 | [3] -0.026 | [4] -0.084 | [5] -0.018

DUSP22 isoform 2 (UniProt Q9NRW4)
inactive: [1] 0.05 | [2] -0.068 | [3] 0.038 | [4] 0.099 | [5] -0.028

DRG1 (UniProt Q9Y295)
inactive: [1] -0.006 | [2] 0.007 | [3] -0.002 | [4] 0.022 | [5] 0.006

EDEM1 (UniProt Q92611)
inactive: [1] 0.009 | [2] 0 | [3] -0.083 | [4] 0.008 | [5] 0.01

ECI1 (UniProt P42126)
inactive: [1] 0.005 | [2] 0.007 | [3] -0.039 | [4] 0.014 | [5] 0.007

DSN1 (UniProt Q9H410)
inactive: [1] -0.012 | [2] 0.053 | [3] 0.019 | [4] -0.013 | [5] 0.02

DTD1 (UniProt Q8TEA8)
inactive: [1] 0.015 | [2] -0.023 | [3] -0.02 | [4] -0.039 | [5] -0.017

EIF1AD (UniProt Q8N9N8)
inactive: [1] 0.026 | [2] 0.004 | [3] -0.01 | [4] 0.037 | [5] -0.034

EBNA1BP2 (UniProt Q99848)
inactive: [1] -0.006 | [2] -0.012 | [3] -0.036 | [4] -0.035 | [5] 0.014

EEF1D isoform 2 (UniProt P29692)
inactive: [1] -0.015 | [2] 0.014 | [3] 0.014 | [4] -0.013 | [5] -0.089
